Laboratory results from paper PMC8178348.
These are yes or no findings as the source states them, for the method shown. In cells and extracts the contact can be indirect. Some binding calls cover weakened binding; strength is not graded here.

By UniProt entry, the sequences of proteins in these tests, tags left out.
UniProt Q13887: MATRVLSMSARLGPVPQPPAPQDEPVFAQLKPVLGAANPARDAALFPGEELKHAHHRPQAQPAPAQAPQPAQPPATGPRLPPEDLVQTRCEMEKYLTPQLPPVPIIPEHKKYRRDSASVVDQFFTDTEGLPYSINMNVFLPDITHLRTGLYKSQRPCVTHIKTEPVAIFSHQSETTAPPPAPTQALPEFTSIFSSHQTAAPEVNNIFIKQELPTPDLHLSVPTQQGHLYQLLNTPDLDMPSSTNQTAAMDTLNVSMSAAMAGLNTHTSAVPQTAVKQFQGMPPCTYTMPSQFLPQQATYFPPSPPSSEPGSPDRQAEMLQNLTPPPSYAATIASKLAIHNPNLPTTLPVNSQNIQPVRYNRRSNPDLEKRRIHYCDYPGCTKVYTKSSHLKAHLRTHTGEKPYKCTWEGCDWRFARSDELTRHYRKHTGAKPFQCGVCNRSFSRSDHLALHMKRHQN
UniProt Q9HAU4: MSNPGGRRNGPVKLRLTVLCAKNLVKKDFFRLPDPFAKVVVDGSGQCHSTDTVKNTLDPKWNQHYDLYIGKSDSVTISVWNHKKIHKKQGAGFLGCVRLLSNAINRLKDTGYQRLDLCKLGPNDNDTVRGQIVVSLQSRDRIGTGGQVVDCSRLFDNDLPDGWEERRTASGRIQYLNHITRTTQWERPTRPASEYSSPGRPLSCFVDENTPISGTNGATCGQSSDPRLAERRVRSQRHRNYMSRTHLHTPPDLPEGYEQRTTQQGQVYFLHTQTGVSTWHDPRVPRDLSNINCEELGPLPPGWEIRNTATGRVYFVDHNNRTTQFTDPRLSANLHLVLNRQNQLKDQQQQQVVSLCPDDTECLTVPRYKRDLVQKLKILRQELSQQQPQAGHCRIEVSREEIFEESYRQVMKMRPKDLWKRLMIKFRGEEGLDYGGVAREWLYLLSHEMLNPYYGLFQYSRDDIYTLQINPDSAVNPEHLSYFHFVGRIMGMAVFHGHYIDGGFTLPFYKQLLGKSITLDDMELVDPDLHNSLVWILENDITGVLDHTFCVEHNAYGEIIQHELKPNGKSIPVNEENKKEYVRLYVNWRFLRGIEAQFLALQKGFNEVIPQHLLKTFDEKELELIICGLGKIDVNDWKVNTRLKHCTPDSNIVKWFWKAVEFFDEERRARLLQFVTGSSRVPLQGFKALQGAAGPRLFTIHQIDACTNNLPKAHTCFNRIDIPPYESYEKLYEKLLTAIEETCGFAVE

How the values were obtained:
[1] = target: endogenous KLF5 (human (endogenous in BMSCs)) (UniProt Q13887); experiment: co-IP; lysate of transduced human BMSCs expressing myc-WWP1 or myc-Smurf2; antibody overnight at 4 °C, Protein A-agarose 2 h at 4 °C, Western blot; IgG as negative control
[2] = target: GST-Smurf2 fusion protein (UniProt Q9HAU4); experiment: pull-down; purified GST, GST-WWP1 or GST-Smurf2 on glutathione-Sepharose 4B beads in GST binding buffer; 10 µl 35S-labeled in vitro translated KLF5 added, 4 °C, 2 h; autoradiography; only the target purified
[3] = target: GST-WWP1 fusion protein (UniProt Q9H0M0); experiment: as above

## Myc-tagged Smurf2 (from UniProt Q9HAU4 1-748) (enzyme)
[1]
  binding: binds

## in vitro-translated KLF5 protein (from UniProt Q13887 1-457)
[2]
  binding: binds
[3]
  binding: binds
